Reference: patent publication US20090098570A1 (Daiichi Sankyo, published 2009)
No constants are given. Whether binding was seen depends on the method and setting. Some entries that bind do so weakly or less than the wild type. Sequences can lack the tags named with a protein.

T1: His-LXRα/FLAG-RXRα heterodimer (ligand binding domains of human LXRα and human RXRα) (human) (UniProt Q13133)
T1 sequence 1: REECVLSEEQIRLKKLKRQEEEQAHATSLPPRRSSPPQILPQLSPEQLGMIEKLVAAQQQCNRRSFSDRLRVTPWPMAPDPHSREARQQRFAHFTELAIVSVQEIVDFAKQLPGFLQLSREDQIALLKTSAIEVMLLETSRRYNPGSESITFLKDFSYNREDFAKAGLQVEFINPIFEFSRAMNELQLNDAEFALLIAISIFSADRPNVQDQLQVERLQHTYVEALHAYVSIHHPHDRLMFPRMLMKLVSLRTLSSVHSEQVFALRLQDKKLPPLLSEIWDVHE
T1 sequence 2: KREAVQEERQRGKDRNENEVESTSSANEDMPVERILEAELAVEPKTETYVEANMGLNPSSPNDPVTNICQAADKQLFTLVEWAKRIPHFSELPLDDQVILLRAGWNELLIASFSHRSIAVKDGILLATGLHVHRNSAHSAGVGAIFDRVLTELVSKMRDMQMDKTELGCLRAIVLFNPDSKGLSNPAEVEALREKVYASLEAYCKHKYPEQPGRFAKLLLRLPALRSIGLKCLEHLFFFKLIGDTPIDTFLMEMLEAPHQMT

B1: PNRC peptide … (aa 848-872) (peptide)
peptide: KNPTSCSRRFYQLTKLLDSVQPIAR
modifications: amino acid of the N-terminal biotinylated (same method as Example 2)
B2: TRAP220 peptide … (aa 590-614) (peptide)
peptide: GHGEDFSKVSQNPILTSLLQITGNG
modifications: amino acid of the N-terminal biotinylated (same method as Example 2)
B3: PERC NRB2 peptide … (aa 332-354) (peptide)
peptide: HSKASWAEFSILRELLAQDVLCD
modifications: amino acid of the N-terminal biotinylated (same method as Example 2)

Biological target: T1, His-LXRα/FLAG-RXRα heterodimer (ligand binding domains of human LXRα and human RXRα) (human)
Experiment: FRET, Example 4

Row | Binder | binding
1 | B1 | binds
2 | B2 | binds
3 | B3 | binds
